Source: PMC7819943, “Rice protein-binding microarrays: a tool to detect cis-acting elements near promoter regions in rice”
The list shows a part of the results.

Sequences of proteins named here, by UniProt entry; tags and fusion partners are left off.
UniProt Q0JBA9, entry or part of it: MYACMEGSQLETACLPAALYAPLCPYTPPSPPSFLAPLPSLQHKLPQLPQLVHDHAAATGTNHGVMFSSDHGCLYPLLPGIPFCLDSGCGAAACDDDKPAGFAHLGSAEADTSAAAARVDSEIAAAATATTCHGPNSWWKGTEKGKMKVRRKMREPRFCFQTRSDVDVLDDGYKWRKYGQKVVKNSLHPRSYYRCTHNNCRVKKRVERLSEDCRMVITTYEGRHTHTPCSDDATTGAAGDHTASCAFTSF

Target: OsWRKY34 (Oryza sativa, UniProt Q0JBA9 1-250)
Assay: protein-binding microarray (RPBM); PBS, 2% BSA, 51.3 ng/ul salmon testes DNA, 50 uM zinc acetate, 200 nM TF, 25 C, 1 h; high values mean tight binding
Conditions: protein: recombinant; tags: N-terminal polyhistidine and DsRed monomer fusion (pET32a); label: CyDye5-dUTP incorporated in the synthesized complementary strand; 3' TTTTT single-stranded linker to array surface; dsDNA, one strand shown
Procedure, shortened: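 The binding signal is fluorescence intensity per feature, in arbitrary units, read on an Axon 4000B scanner. Polyhistidine- and DsRed-tagged transcription factors (N-terminal fusions) from E. coli BL21-CodonPlus were purified on Ni–NTA and applied at 200 nM for 1 h at 25 °C to a double-stranded, BSA-blocked custom Agilent array in buffer with 50 µM zinc acetate.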

Sequence	binding signal
TTCTCTTTTTCCTTTTCTCCCATCGAAACCTTTTTTTTTTCGGAGTCACCTAGTGCAG	9060 fluorescence intensity (a.u.)
AATATTTCCCTTTCCAATGTTCAGTCAGCCCATCAGACCGCGGAGTCACCTAGTGCAG	8110 fluorescence intensity (a.u.)
CTATATATTTACCCACTGTATACCTCTGTCATGAAAGCATCGGAGTCACCTAGTGCAG	11500 fluorescence intensity (a.u.)
TTGTTCATGATTCCCACCAATCGATTAATTTTTCGTCCGGCGGAGTCACCTAGTGCAG	9950 fluorescence intensity (a.u.)
GCTATTTGTGCAAAAGCTTTTCTCTTCTTTCTTAGTACAACGGAGTCACCTAGTGCAG	9970 fluorescence intensity (a.u.)
TCTCGCCACCTTCGCCTCCATCTCATCGACCGCCCACTTCCGGAGTCACCTAGTGCAG	12800 fluorescence intensity (a.u.)
ACGTCACCAAGTACGCGTCACTCCTCGCCGCCGGCAACTCCGGAGTCACCTAGTGCAG	8700 fluorescence intensity (a.u.)
TTGTTTTATCACTCATAGTCTTTTAAGTGTGGTTTATATCCGGAGTCACCTAGTGCAG	8670 fluorescence intensity (a.u.)
ACACGGGCCCCGGACTCCTTCTGCAGCAAGTTACAAGCCACGGAGTCACCTAGTGCAG	8150 fluorescence intensity (a.u.)
AGAAGTTGATTTGGGGTTGCGCTATATCTATTAAAGAGTACGGAGTCACCTAGTGCAG	9180 fluorescence intensity (a.u.)
TCTGCAGCTTCCATCCGTCGCCGTAGTCGGCGAGCGGCGCCGGAGTCACCTAGTGCAG	8090 fluorescence intensity (a.u.)
GGACTTAAAAGTTTTAGTCCCATCTGAACAGCGTCTTAATCGGAGTCACCTAGTGCAG	8330 fluorescence intensity (a.u.)
GTCGCCGCACACGCCACAGTCGTCGTTGCACACACGCGCCCGGAGTCACCTAGTGCAG	8250 fluorescence intensity (a.u.)
AGGTCTTCACTATGCACCTGCACATTGTAGCTCGATTACCCGGAGTCACCTAGTGCAG	8420 fluorescence intensity (a.u.)
CGTCCCGTTCACACCACCACCGTCTCGTCGCCTCGTCGGCCGGAGTCACCTAGTGCAG	9900 fluorescence intensity (a.u.)
GCCACAATAAAATATTATCCACATATGGCAGTGTTCGTTTCGGAGTCACCTAGTGCAG	8250 fluorescence intensity (a.u.)
GATGTGAATCACCCTTTGCTTTGCTGAATCTACTCCTACACGGAGTCACCTAGTGCAG	10600 fluorescence intensity (a.u.)
TTGCTTGTCTGTTTGTTTTATTTATTTATGACGTCATTATCGGAGTCACCTAGTGCAG	12600 fluorescence intensity (a.u.)
CGGTTTTCTTAGTGACCAACTTGCCCTTTTGCCTTATCCCCGGAGTCACCTAGTGCAG	8420 fluorescence intensity (a.u.)
GCGGACAAGTCCTTGATTCAGTCCACTCGTCTTGATTATTCGGAGTCACCTAGTGCAG	8780 fluorescence intensity (a.u.)
ATATGGCATTGTTTCTGTGTTATTCAGGCGCACCTTTAAACGGAGTCACCTAGTGCAG	10100 fluorescence intensity (a.u.)
GCTAAGGTAAGCTCCATCTGCTTCTGATACACACACTCACCGGAGTCACCTAGTGCAG	8590 fluorescence intensity (a.u.)
AGCTGCTTAGTTGGGCACTTTGAGTTGTGATATATTAATTCGGAGTCACCTAGTGCAG	9180 fluorescence intensity (a.u.)
TTTTTATGGTTTAATGTTTCTGTATTTGCTACCGTTTTCCCGGAGTCACCTAGTGCAG	11600 fluorescence intensity (a.u.)
GTATTTTCGCGTTCCAAAATCTGTTCGCTGGACCCGGCCGCGGAGTCACCTAGTGCAG	9170 fluorescence intensity (a.u.)
CTTCTCCTTGCACCTGTTGACCGCTAGCACCGCGGCTTCCCGGAGTCACCTAGTGCAG	13700 fluorescence intensity (a.u.)
TTAATGGGTTTTTTGTGCTAATTATTCAGTCAACCTCTGCCGGAGTCACCTAGTGCAG	8920 fluorescence intensity (a.u.)

Sequence	binding signal
TCTACCCGCAGCGTGCTCACATGGCTCACAGCTTCCGTTCCGGAGTCACCTAGTGCAG	9180 fluorescence intensity (a.u.)
AAATTGTAGATAGCTTGTTTGTGCATAATCCTTTTGTTTTCGGAGTCACCTAGTGCAG	9960 fluorescence intensity (a.u.)
GGGCTTTTAAATTTGGTTTATATTGAATCCTCTACCGTTACGGAGTCACCTAGTGCAG	10700 fluorescence intensity (a.u.)
TTTTGTTTGTTTTCATTCGGCGTCGCCGAAGGGGTGGAACCGGAGTCACCTAGTGCAG	8380 fluorescence intensity (a.u.)
GATTCTATTACCGGATTGGGTTTCTATGTATGCAGTTGTTCGGAGTCACCTAGTGCAG	12700 fluorescence intensity (a.u.)
TACTTTTCGTTTGCAAATATGTCGTTTCGCTTATTCCGCGCGGAGTCACCTAGTGCAG	13800 fluorescence intensity (a.u.)
TCCCAGATCTCACACTCCATCTCGCGAGCGCGCCGACGCGCGGAGTCACCTAGTGCAG	9610 fluorescence intensity (a.u.)
GTTGACGTCTCCCAAGTGCCACACCCGCCGCCACGTCACTCGGAGTCACCTAGTGCAG	8880 fluorescence intensity (a.u.)
GATGTACGTCCAGCTGTCCTGCTCCAAATTTCGTTGTTACCGGAGTCACCTAGTGCAG	8130 fluorescence intensity (a.u.)
GTTGGTTAAAAAGTCAACGACGTCATATATTAAAATACGGCGGAGTCACCTAGTGCAG	9110 fluorescence intensity (a.u.)
TCTCCGTCGCCTTCTGATCCCCGCGCGCGCGGCTGCCTATCGGAGTCACCTAGTGCAG	9390 fluorescence intensity (a.u.)
GATAAGACAAACCACCGTGCTCCGCCGCGTCGCTCACTCTCGGAGTCACCTAGTGCAG	8170 fluorescence intensity (a.u.)
CCTCTAACTCTCTATCCACTTCCTTAGCTTCCTTCTGTCGCGGAGTCACCTAGTGCAG	8390 fluorescence intensity (a.u.)
CCTATATTTAATACTTTATGCTGCTGTTCAAACGTTCGATCGGAGTCACCTAGTGCAG	8140 fluorescence intensity (a.u.)
GCCACATTACCGCCACTTATGACAAGTACTAAGTCAAACCCGGAGTCACCTAGTGCAG	8790 fluorescence intensity (a.u.)
GTGAGTATGTGAGTGTGGTATTGCATATATTATATAATAACGGAGTCACCTAGTGCAG	11800 fluorescence intensity (a.u.)
AAGCACAACTTTTCATTTTTTATATTTGCACATTTTATTTCGGAGTCACCTAGTGCAG	12900 fluorescence intensity (a.u.)
TCACCTCTTTTTTTATATCTTCTTAATCTTATCTTTTTTTCGGAGTCACCTAGTGCAG	9150 fluorescence intensity (a.u.)
GAGCAGTTCCATCACCGTCGCACTCTGTCTCCTTGATCCGCGGAGTCACCTAGTGCAG	14400 fluorescence intensity (a.u.)
TCTACACAATTCAAAATCCGGCCCTGTTTATTTTGTACTACGGAGTCACCTAGTGCAG	8420 fluorescence intensity (a.u.)
ACTTGTCACTGTCAGTCTTGGACCCAAATGCCATAAGTCACGGAGTCACCTAGTGCAG	11100 fluorescence intensity (a.u.)
ACTAGACTGTATTTACTCGTGTACAGTACATGTGTACTTTCGGAGTCACCTAGTGCAG	8210 fluorescence intensity (a.u.)
GGCTGTGTATTAAGTATGTTTGCATTGTAATTCTCTTTTTCGGAGTCACCTAGTGCAG	11600 fluorescence intensity (a.u.)
TCATAGAAGCATGCTCACGGTTAACCTGGTATTCACTCTTCGGAGTCACCTAGTGCAG	9130 fluorescence intensity (a.u.)
TAGGGCCCAGCCCAGAGGGCAGTGTTGACCAGCTTTGACCCGGAGTCACCTAGTGCAG	8920 fluorescence intensity (a.u.)
CTGTCTTGCTATGTATGTGTACACCAATTTTAATATACGACGGAGTCACCTAGTGCAG	11500 fluorescence intensity (a.u.)
GCCGTCCGTCGTCCTCCCGCTGCCGCCGCCGCGCGCGTCGCGGAGTCACCTAGTGCAG	8120 fluorescence intensity (a.u.)

As a short view, some entries already given.
Sequence	binding signal
GGGCTTTTAAATTTGGTTTATATTGAATCCTCTACCGTTACGGAGTCACCTAGTGCAG	10700 fluorescence intensity (a.u.)
TTTTGTTTGTTTTCATTCGGCGTCGCCGAAGGGGTGGAACCGGAGTCACCTAGTGCAG	8380 fluorescence intensity (a.u.)
GATTCTATTACCGGATTGGGTTTCTATGTATGCAGTTGTTCGGAGTCACCTAGTGCAG	12700 fluorescence intensity (a.u.)
